{"source": "PubChem BioAssay AID1259254 (NCATS, 2017)", "purpose": "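Finding genes that stop cells copying their DNA twice in one cycle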 (primary screen)", "cells": "human HCT116 colorectal cancer cells", "reagent": "single siRNA against human genes", "time to read-out": "3 days", "measured": "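Nuclei stained with Hoechst and imaged; cell-cycle phase assigned by DNA content; G2 share scaled per plate, non-targeting siRNA 0%, GMNN siRNA 100%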", "direction": "G2 robust z-score: higher = more G2 cells, more excess DNA replication", "call rule": "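Active siRNAs have a G2 robust z of 5 or more median absolute deviations over the median, which in these data means about 38% or higher of GMNN control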", "note": "This is an unselected part of about 59,000 reagents tested. Over the whole deposit, about 1,550 (2.6%) got an active call. 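G2 share is only a proxy for re-replication; each gene was hit by three separate siRNAs, and active genes were retested.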 Reagents against one gene are numbered here. Further read-outs or replicates are left out here. The record does not give: the amount of reagent."}
{"Gene": "MED20 (mediator complex subunit 20)", "siRNA no.": 1, "G2 robust z-score": -0.24, "call": "inactive"}
{"Gene": "MED20 (mediator complex subunit 20)", "siRNA no.": 2, "G2 robust z-score": 3.38, "call": "inactive"}
{"Gene": "MED20 (mediator complex subunit 20)", "siRNA no.": 3, "G2 robust z-score": -0.758, "call": "inactive"}
{"Gene": "TCP10L2 (t-complex 10 like 2 (pseudogene))", "siRNA no.": 1, "G2 robust z-score": 0.164, "call": "inactive"}
{"Gene": "TCP10L2 (t-complex 10 like 2 (pseudogene))", "siRNA no.": 2, "G2 robust z-score": -0.815, "call": "inactive"}
{"Gene": "TCP10L2 (t-complex 10 like 2 (pseudogene))", "siRNA no.": 3, "G2 robust z-score": -1.4, "call": "inactive"}
{"Gene": "SLCO1C1", "siRNA no.": 1, "G2 robust z-score": -0.897, "call": "inactive"}
{"Gene": "SLCO1C1", "siRNA no.": 2, "G2 robust z-score": 2.16, "call": "inactive"}
{"Gene": "SLCO1C1", "siRNA no.": 3, "G2 robust z-score": -0.614, "call": "inactive"}
{"Gene": "SIMC1 (SUMO interacting motifs containing 1)", "siRNA no.": 1, "G2 robust z-score": 2.74, "call": "inactive"}
{"Gene": "SIMC1 (SUMO interacting motifs containing 1)", "siRNA no.": 2, "G2 robust z-score": -0.649, "call": "inactive"}
{"Gene": "SIMC1 (SUMO interacting motifs containing 1)", "siRNA no.": 3, "G2 robust z-score": 0.0827, "call": "inactive"}
{"Gene": "LOC402279 (glutamate metabotropic receptor 8 pseudogene)", "siRNA no.": 1, "G2 robust z-score": 0.371, "call": "inactive"}
{"Gene": "LOC402279 (glutamate metabotropic receptor 8 pseudogene)", "siRNA no.": 2, "G2 robust z-score": 0.406, "call": "inactive"}
{"Gene": "LOC402279 (glutamate metabotropic receptor 8 pseudogene)", "siRNA no.": 3, "G2 robust z-score": -0.296, "call": "inactive"}

Next part (2 carried over from the part before).
{"Gene": "LOC402279 (glutamate metabotropic receptor 8 pseudogene)", "siRNA no.": 2, "G2 robust z-score": 0.406, "call": "inactive"}
{"Gene": "LOC402279 (glutamate metabotropic receptor 8 pseudogene)", "siRNA no.": 3, "G2 robust z-score": -0.296, "call": "inactive"}
{"Gene": "DKK1 (dickkopf Wnt signaling pathway inhibitor 1)", "siRNA no.": 1, "G2 robust z-score": -1.16, "call": "inactive"}
{"Gene": "DKK1 (dickkopf Wnt signaling pathway inhibitor 1)", "siRNA no.": 2, "G2 robust z-score": 0.814, "call": "inactive"}
{"Gene": "DKK1 (dickkopf Wnt signaling pathway inhibitor 1)", "siRNA no.": 3, "G2 robust z-score": 0.812, "call": "inactive"}
{"Gene": "MMP3 (matrix metallopeptidase 3)", "siRNA no.": 1, "G2 robust z-score": 1.87, "call": "inactive"}
{"Gene": "MMP3 (matrix metallopeptidase 3)", "siRNA no.": 2, "G2 robust z-score": -0.787, "call": "inactive"}
{"Gene": "MMP3 (matrix metallopeptidase 3)", "siRNA no.": 3, "G2 robust z-score": -0.0619, "call": "inactive"}
{"Gene": "TIMM23B (translocase of inner mitochondrial membrane 23 homolog B)", "siRNA no.": 1, "G2 robust z-score": -0.543, "call": "inactive"}
{"Gene": "TIMM23B (translocase of inner mitochondrial membrane 23 homolog B)", "siRNA no.": 2, "G2 robust z-score": -0.346, "call": "inactive"}
{"Gene": "TIMM23B (translocase of inner mitochondrial membrane 23 homolog B)", "siRNA no.": 3, "G2 robust z-score": 0.438, "call": "inactive"}
{"Gene": "TIMM23B (translocase of inner mitochondrial membrane 23 homolog B)", "siRNA no.": 4, "G2 robust z-score": 0.0402, "call": "inactive"}
{"Gene": "TIMM23B (translocase of inner mitochondrial membrane 23 homolog B)", "siRNA no.": 5, "G2 robust z-score": 1.11, "call": "inactive"}
{"Gene": "TIMM23B (translocase of inner mitochondrial membrane 23 homolog B)", "siRNA no.": 6, "G2 robust z-score": 0.304, "call": "inactive"}
{"Gene": "TIAM1 (TIAM Rac1 associated GEF 1)", "siRNA no.": 1, "G2 robust z-score": -0.829, "call": "inactive"}
{"Gene": "TIAM1 (TIAM Rac1 associated GEF 1)", "siRNA no.": 2, "G2 robust z-score": -0.669, "call": "inactive"}
{"Gene": "TIAM1 (TIAM Rac1 associated GEF 1)", "siRNA no.": 3, "G2 robust z-score": 0.212, "call": "inactive"}
